Results: article PMC10443802 (JCI Insight, 2023)
Where “and” joins values, the source holds several entries; their conditions need not be identical. Identical values can stand only once.

Tested on: OATP1B2
Assay: Untargeted metabolomics of plasma and DRG, WT vs OATP1B2-deficient mice
Assay type: in vivo, mouse
[1] = untargeted metabolomics, WT vs OATP1B2-deficient mice, supplement sheet "Figure 5B" (volcano plot)
[2] = untargeted metabolomics, sheet "Figure 5C", WT vs OATP1B2-deficient mice
[3] = untargeted metabolomics, WT vs OATP1B2-deficient mice, supplement sheet "Figure 5B"
[4] = Figure 5B source data (volcano plot), untargeted metabolomics, WT vs OATP1B2-deficient mice, log2 fold change of metabolite level

SMILES | Log2FoldChange [1] | Log2FoldChange [2] | Log2FoldChange [3] | also measured
N[C@@H](CS(=O)O)C(=O)O [cysteine sulfinic acid] | 0.3674 | – | – | –
CCCCCCC(=O)O [heptanoate (7:0)] | 0.4114 | -0.2009 | – | –
O=C1Cc2ccccc2N1 [indolin-2-one] | 0.5945 | – | – | –
O=P(O)(O)OCC(O)CO (centres unmarked) [glycerol 3-phosphate] | – | 0.2388 | 0.1375 | –
O=C(O)CCCCCCCCC(=O)O [sebacate (C10-DC)] | 0.5261 | – | – | –
C=CCCCCCCCCC(=O)O [10-undecenoate (11:1n1)] | – | – | – | Log2FoldChange [4]: -0.415
NC(=O)NCCCC[C@H](N)C(=O)O [homocitrulline] | – | – | 0.189 | –
CCCCC/C=C\C/C=C\CCCCCCCC(=O)O[C@H](COC(=O)CCCCCCCCCCCCCCCCC)COP(=O)(O)OCCN [1-stearoyl-2-linoleoyl-GPE (18:0/18:2)*] | – | – | 0.08406 | –
N[C@@H](Cc1ccc(OS(=O)(=O)O)cc1)C(=O)O [O-sulfo-L-tyrosine] | 0.263 | 0.189 | – | –
CC[C@H](C)[C@H](NC(C)C(=O)O)C(=O)O (some centres unmarked) [1-carboxyethylisoleucine] | – | -0.2515 | 0.2016 | –
CCCCCCCCCCCCCCCCCC(=O)OCC[N+](C)(C)C [stearoylcholine*] | – | – | -0.152 | –
CCCCCCCCCC(=O)O[C@H](CC(=O)[O-])C[N+](C)(C)C [decanoylcarnitine (C10)] | 0.251 | – | – | –
Cc1cn([C@@H]2O[C@H](CO)[C@@H](O)[C@H]2O)c(=O)[nH]c1=O [5-methyluridine (ribothymidine)] | – | 0.3334 | – | –
CCCCC/C=C\C/C=C\CCCCCCCC(=O)OC[C@@H](O)COP(=O)([O-])OCC[N+](C)(C)C [1-linoleoyl-GPC (18:2)] | 0.696 | 0.3103 | – | –
O=C(O)CC[C@H](NC(=O)Cc1ccccc1)C(=O)O [phenylacetylglutamate] | 0.546 | – | – | –
C[C@H](CCC(=O)O)[C@H]1CC[C@H]2[C@@H]3CC(=O)[C@@H]4C[C@H](O)CC[C@]4(C)[C@H]3CC[C@]12C [6-oxolithocholate] | 0.516 | – | – | –
C[C@H](CCC(=O)O)[C@H]1CC[C@H]2[C@@H]3C[C@H](O)[C@@H]4C[C@@H](O)CC[C@]4(C)[C@H]3CC[C@]12C [isohyodeoxycholate] | 1.299 | – | – | –
CCCC[C@@H]1C[C@H]1CC(=O)NCC(=O)O [trans-3,4-methyleneheptanoylglycine] | 0.263 | – | – | –
CC(N[C@H](C(=O)O)C(C)C)C(=O)O (some centres unmarked) [1-carboxyethylvaline] | – | -0.1361 | – | –
C[C@H](CCC(=O)O)[C@H]1CC[C@H]2[C@@H]3C(=O)C[C@@H]4C[C@H](O)CC[C@]4(C)[C@H]3C[C@H](O)[C@]12C [7-ketodeoxycholate] | 2.639 | – | – | –
CC(=O)N[C@@H](CCCN)C(=O)O [N-alpha-acetylornithine] | – | – | -0.08927 | –
O=C(O)/C=C/c1cnc[nH]1 [trans-urocanate] | 0.433 | -0.1844 | – | –
O=C([O-])c1ccc[n+]([C@@H]2O[C@H](CO)[C@@H](O)[C@H]2O)c1 [nicotinate ribonucleoside] | – | – | – | Log2FoldChange [4]: -0.2515
CCCCCCCCC(O)C(=O)O (centres unmarked) [2-hydroxydecanoate] | – | – | 0 | –
C[C@H](N)C(=O)O [alanine] | – | 0.05658 | – | –

SMILES | Log2FoldChange [1] | Log2FoldChange [2] | Log2FoldChange [3] | also measured
CC(=O)NC(CO)C(=O)O (centres unmarked) [N-acetylserine] | – | – | 0.1375 | –
CC(=O)NCCC[C@H](N)C(=O)O [N-delta-acetylornithine] | – | 0.2265 | 0.09761 | –
Nc1ncnc2c1ncn2[C@@H]1O[C@H](CO)[C@@H](O)[C@H]1O [adenosine] | 0.6415 | 0.3561 | – | –
CCCCCCCCC=CCCCCCCCC(=O)OC(COC=CCCCCCCCCCCCCCCCC)COP(=O)(O)OCCN (centres unmarked) | 0.3785 | -0.3219 | – | –
CC(=O)NCCCC(=O)O [4-acetamidobutanoate] | – | – | 0.05658 | –
CCCCCCCC/C=C\CCCCCCCCCCCC(=O)O [erucate (22:1n9)] | – | -1.218 | – | –
C[C@@H](O)[C@H](NC(=O)CC[C@H](N)C(=O)O)C(=O)O [gamma-glutamylthreonine] | – | -0.1844 | 0.111 | –
CCCCCCCCCCCCCCCCCC(=O)OC[C@@H](O)COP(=O)(O)OCCN [1-stearoyl-GPE (18:0)] | 0.4222 | – | – | –
CC(O)C(C)(O)C(=O)O (centres unmarked) [2,3-dihydroxy-2-methylbutyrate] | – | – | – | Log2FoldChange [4]: -0.2863
N[C@@H](Cc1c(C2OC(CO)C(O)C(O)C2O)[nH]c2ccccc12)C(=O)O (some centres unmarked) [C-glycosyltryptophan] | – | 0.1763 | 0.05658 | –
CCCCCCCCCCCCCCCC(=O)OC[C@@H](O)COP(=O)(O)OC1[C@H](O)[C@H](O)C(O)[C@H](O)[C@H]1O (some centres unmarked) [1-palmitoyl-GPI (16:0)] | – | 0.2016 | 0.1763 | –
O=C(O)Cc1ccc(O)cc1 [4-hydroxyphenylacetate] | – | – | 0.111 | –
CCCCCCCCCCCCCCCC(=O)OC[C@@H](O)COP(=O)([O-])OCC[N+](C)(C)C [1-palmitoyl-GPC (16:0)] | 0.3674 | 0.4005 | – | –
CC(CC(=O)O)C(=O)O (centres unmarked) [methylsuccinate] | 0.2388 | 0.4436 | – | –
CC(C)C(=O)O[C@H](CC(=O)[O-])C[N+](C)(C)C [isobutyrylcarnitine (C4)] | 0.4854 | 0.4647 | – | –
NCCc1c[nH]c2ccc(O)cc12 [serotonin] | 0.3219 | – | – | –
CCCCC/C=C\C/C=C\C/C=C\C/C=C\CCCC(=O)OC[C@@H](O)COP(=O)(O)OC1C(O)C(O)C(O)C(O)C1O (some centres unmarked) [1-arachidonoyl-GPI (20:4)*] | 0.5656 | 0.6041 | – | –
O=C1CC(C(=O)O)C(C(=O)O)O1 (centres unmarked) [isocitric lactone] | 0.2869 | – | – | –
CCCCCCCCCCCCCCCCCC(N)=O [stearamide (18:0)] | 0.5753 | – | – | –
CCCCCCCCCCCCCCCC(=O)OCC(O)CO (centres unmarked) [1-palmitoylglycerol (16:0)] | – | 0.4005 | – | –
O=C(O)CNC(=O)CCc1ccccc1 [phenylpropionylglycine] | 1.269 | – | – | –
CCCCC/C=C\C/C=C\CCCCCCCC(=O)NCCO [linoleoyl ethanolamide] | – | 0.4957 | – | Log2FoldChange [4]: -0.3585
CCCCCC/C=C\CCCCCCCC(=O)O[C@H](COC(=O)CCCCCCCCCCCCCCC)COP(=O)([O-])OCC[N+](C)(C)C | – | -0.152 | – | –
CCCCCCCCCCCCCC(=O)OC(CO)CO [2-myristoylglycerol (14:0)] | – | 0.7137 | – | Log2FoldChange [4]: -0.2009
CN1CC(=O)NC1=N [creatinine] | – | – | 0.1375 | –

SMILES | Log2FoldChange [1] | Log2FoldChange [2] | Log2FoldChange [3] | also measured
O=C(O)[C@@H]1CCC(O)=N1 [5-oxoproline] | – | – | – | Log2FoldChange (mouse, in vivo): 0.1375 and 0.111
CC(=O)N[C@H]1C(OP(=O)(O)O)O[C@H](CO)[C@@H](O)[C@@H]1O (some centres unmarked) [N-acetyl-glucosamine 1-phosphate] | – | -0.0145 | – | –
CCCCCCCCCCCCCCCC(=O)O [palmitate (16:0)] | – | 0.111 | – | Log2FoldChange [4]: -0.1844
CC(C)[C@H](NC(=O)CC[C@H](N)C(=O)O)C(=O)O [gamma-glutamylvaline] | – | – | 0.05658 | –
Nc1ncnc2c1ncn2[C@@H]1O[C@H](CO)[C@@H](O)[C@H]1OP(=O)(O)O [adenosine 2'-monophosphate (2'-AMP)] | – | 0.189 | – | –
Cc1ncc(C[n+]2csc(CCOP(=O)(O)O)c2C)c(N)n1 [thiamin monophosphate] | – | 0.2265 | – | –
O=C(O)C=C(CC(=O)O)C(=O)O [aconitate [cis or trans]] | – | – | 0.08406 | –
CCC(=O)NCC(=O)O [propionylglycine] | 0.4854 | – | – | –
CCCCC(=O)O[C@H](CC(=O)[O-])C[N+](C)(C)C [valerylcarnitine (C5)] | 0.4854 | – | – | –
Nc1ncnc2c1ncn2[C@@H]1O[C@H](CSCC[C@H](N)C(=O)O)[C@@H](O)[C@H]1O [S-adenosylhomocysteine (SAH)] | 0.3448 | 0.1763 | – | –
O=C(O)c1c(O)c(Cl)cc(Br)c1O | – | – | -0.1203 | –
CCCCCCCCCCCCCCCCC(=O)OC(CC(=O)[O-])C[N+](C)(C)C (centres unmarked) [margaroylcarnitine (C17)*] | 0.669 | -0.1361 | – | –
CCCCCCCCCCCCCCCC(=O)O[C@H](CO)COP(=O)([O-])OCC[N+](C)(C)C [2-palmitoyl-GPC (16:0)*] | – | 0.4005 | 0.2016 | –
CCCCCCCC/C=C\C/C=C\C/C=C\CCCC(=O)O [mead acid (20:3n9)] | – | – | -0.08927 | –
CCCCCCCC/C=C\CCCCCCCC(N)=O [oleamide] | 0.4647 | – | – | –
CC/C=C\C/C=C\C/C=C\C/C=C\C/C=C\C/C=C\CCC(=O)O[C@H](COC(=O)CCCCCCCCCCCCCCCCC)COP(=O)(O)OCCN | – | -0.2009 | -0.152 | –
O=C(O)CCc1ccc(O)cc1 [3-(4-hydroxyphenyl)propionate] | – | – | – | Log2FoldChange [4]: -1.69
CCCCCC(=O)NCCS(=O)(=O)O [hexanoyltaurine] | 0.4854 | – | – | –
O=C(O)CNC(=O)Cc1ccccc1 [phenylacetylglycine] | 0.3219 | 0.546 | – | –
OC[C@H]1OC(O)[C@@H](O)[C@@H](O)[C@@H]1O (some centres unmarked) [mannose] | – | -0.1844 | -0.0145 | –
CCCCCCCC/C=C\CCCCCCCC(=O)OCC[N+](C)(C)C [oleoylcholine] | – | 0.848 | 0.2016 | –
Cc1ncc(CO)c(C(=O)O)c1O [pyridoxate] | 0.4222 | 0.7049 | – | –
CC(C)(C)c1ccc(O)c(C(C)(C)C)c1 [2,4-di-tert-butylphenol] | – | – | 0.05658 | –
O=C(O)CCCCCCCCCCCCCCCCC(=O)O [octadecanedioate (C18-DC)] | 0.4647 | – | – | –
